{
  "source": "patent US20220057415A1",
  "about": "“METHOD FOR DETECTING ALLERGIC DISEASES” (The University of Tokyo, priority 2018, published 2022)",
  "data": [
    {"system": "allergic rhinitis model mice", "assay": "Lipid mediators in urine by LC-MS/MS", "format": "in vivo, BALB/C mice", "conditions": "24 hours, 5-time and 10-time OVA-administered groups vs solvent-administered groups", "values": [
      {"compound": "CCCCC/C=C\\C[C@@H](O)/C=C/C=C\\C/C=C\\CCCC(=O)O", "note": "[12-HETE, 12-hydroxyeicosatetraenoic acid]", "amount of lipid mediator (peak area relative to internal standard)": "tend to be larger"},
      {"compound": "12-hydroxy eicosapentaenoic acid [12-HEPE]", "amount of lipid mediator (peak area relative to internal standard)": "tend to be larger"},
      {"compound": "CCCCC[C@H](O)/C=C/[C@H]1C(=O)C[C@H](O)[C@@H]1C/C=C\\CCCC(=O)O", "note": "[PGD2, prostaglandin D2]", "amount of lipid mediator (peak area relative to internal standard)": "tend to be larger"}
    ]}
  ]
}
